Out of some 400,000 compounds screened, about 13,000 (3.2%) were called active. Inconclusive means that the source gave no clear call. Such entries were picked first, then a sample of the others. The call rests on the fitted dose curve; in most records, active means well fitted cell-killing curve with a large enough effect; inconclusive means small, poorly fitted or top-dose-only effect, or effect the other way; inactive means flat fitted curve, though single readings scatter. A potency beside an inconclusive call is a rough fit, not a confirmed value.
Test: qHTS assay for MDR1-selective chemotherapeutics: Primary screen using the drug-selected MDR subline cells KB-V1; further: nearly all actives have a fitted effect of over 60% in size
Settings: KB-V1 MDR cells viability, CellTiter-Glo, 72 h; activity change, negative = cytotoxicity: at 46.1 µM (top of the series)
Outline: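 Potencies derive from concentration-effect curves fitted to normalized luminescence (CellTiter-Glo) of KB-V1 cells treated for 72 h at 37 degrees C in phenol-red-free DMEM containing 10% FBS.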
On the % scale 0 is the no-effect control and ±100 the full control effect; potency means the concentration at half of the fitted maximal effect.

Row | SMILES | Potency | activity change, negative = cytotoxicity
1 | COC(=O)C(Cc1cnc(Cl)s1)(C(=O)OC)c1ccc([N+](=O)[O-])cc1 | inconclusive: 16.4 µM [cytotoxic, partial curve] | 
2 | CCCCC1(C)NC(=O)c2c(C)sc(C(=O)OCC)c2N1 (configuration not stated) | inconclusive: 14.6 µM [cytotoxic, partial curve] | 
3 | CCOc1ccc(CCNS(=O)(=O)c2c(C)nc3sc(C)cn3c2=O)cc1OCC |  | inactive: -6.85%
4 | COC(=O)c1ccc(NC(=O)c2nc(S(=O)(=O)Cc3cccc(C)c3)ncc2Cl)cc1 | active: 9.2 µM | 
5 | O=C(Nc1nnc(-c2ccc(Br)cc2)o1)C1=COCCO1 | inconclusive: 23.1 µM [cytotoxic, partial curve, poor fit] | 
6 | O=C(OCC(=O)N1CCOCC1)c1cccc(F)c1 | inconclusive: 5.17 µM [rising, full curve] | 
7 | CC1(C)OC(=O)C(=Cc2ccc(-c3ccc(S(N)(=O)=O)cc3)o2)C(=O)O1 |  | inactive: 15.1%
8 | Cc1c(NC(=S)N/N=C/c2cc([N+](=O)[O-])ccc2O)c(=O)n(-c2ccccc2)n1C |  | inactive: 1.62%
9 | NC(=O)Cn1c(=O)n(-c2ccccc2)c(=O)c2oc3ccccc3c21 |  | inactive: 0%
10 | CC(=O)NNc1cc(C)nc(N)n1 |  | inactive: 23.8%
11 | CC1(C(=O)NS(=O)(=O)c2ccc(Br)cc2)CCN1C(=O)CCC1CCCC1 (configuration not stated) |  | inactive: 3.98%
12 | CCCCN(CC)CCCNC(=O)CC1Oc2ccccc2NC1=O (configuration not stated) |  | inactive: 3.35%
13 | O=C1/C(=C\c2ccc3ccccc3c2)CCCc2ccccc21 | active: 7.31 µM | 
14 | O=C(CCCSc1nc(-c2ccco2)cc(C(F)(F)F)n1)Nc1ccc2c(c1)OCO2 |  | inactive: -14.1%
15 | COC(=O)CN1C(=O)[C@H]2[C@@H](/C=C/c3ccccc3)N3C(=O)CN(Cc4ccc(-c5ccccc5)cc4)C(=O)[C@@]3(C)[C@H]2C1=O | inconclusive: 20.6 µM [rising, single point] | 
16 | CC(NCC(=O)Nc1ccccc1C(=O)NC1CC1)c1ccc(F)cc1F (configuration not stated) | inconclusive: 20.6 µM [cytotoxic, partial curve, poor fit] | 
17 | Cc1cc(OCC(=O)OCC(=O)N(Cc2ccccc2)C(C)(C)C)ccc1Cl |  | inactive: -0.722%
18 | COc1ccc(CCNC(=O)CSc2ccc(-c3cccs3)nn2)cc1 | inconclusive: 13 µM [cytotoxic, partial curve] | 
19 | O=C(Nc1sc2c(c1C(=O)NCc1ccccc1)CCCC2)c1cc(=O)c2cc(Cl)ccc2o1 | inconclusive: 29.1 µM [rising, single point] | 
20 | COc1cccc(C2c3[nH]c4ccccc4c3C[C@H]3C(=O)N(C4CCN(Cc5ccccc5)CC4)CC(=O)N23)c1 (some centres not stated) | inconclusive: 32.6 µM [cytotoxic, single point] | 
21 | COc1cc(C(=S)N2CCOCC2)ccc1OS(=O)(=O)c1ccccc1[N+](=O)[O-] | inconclusive: 5.8 µM [cytotoxic, full curve] | 
22 | COCCCNCCCOc1ccc(Cl)cc1C(C)(C)C | active: 25.9 µM | 
23 | COc1ccc(NC(=O)C/C(C)=N/NC(=O)COc2ccc(OC)cc2)cc1 | inconclusive: 23.1 µM [rising, partial curve] | 
24 | CCOC(=O)C1CCN(c2c(NCCCN(C)C3CCCCC3)c(=O)c2=O)CC1 | inconclusive: 29.1 µM [rising, single point] | 

Row | SMILES | Potency | activity change, negative = cytotoxicity
25 | Cc1cnc(Nc2nc3ccccc3o2)nc1C(=O)Nc1cccc(C(F)(F)F)c1 | active: 14.6 µM | 
26 | N#CCCN(Cc1cccnc1)C(=S)NC(=O)c1ccc(S(=O)(=O)N2CCCC2)cc1 |  | inactive: 7.24%
27 | Fc1ccccc1COc1ccccc1/C=N/Nc1nc(N2CCCC2)nc(N2CCCC2)n1 | inconclusive: 14.6 µM [cytotoxic, partial curve, poor fit] | 
28 | Cc1sc2nc(CSCC(=O)Nc3ccccc3C#N)[nH]c(=O)c2c1C | active: 20.6 µM | 
29 | Cc1ccc(NCC(=O)Nc2ccc(F)c(Cl)c2)cc1S(=O)(=O)N1CCOCC1 | inconclusive: 29.1 µM [cytotoxic, single point] | 
30 | COc1nccnc1NS(=O)(=O)c1ccc(NC(=S)NC(=O)c2ccccc2)cc1 | inconclusive: 23.1 µM [cytotoxic, partial curve, poor fit] | 
31 | CCOc1ccc(C(=O)OCC(=O)Nc2cccnc2Cl)cc1OCC | active: 18.4 µM | 
32 | Cc1nc(CN2CCCCC2)cc(=O)[nH]1 |  | inactive: -3.52%
33 | CSc1ccc(Cn2c(C)c(C(=O)NCc3ccc(F)cc3)sc2=O)cc1 | inconclusive: 20.6 µM [cytotoxic, partial curve] | 
34 | Cc1ccc2c(c1)C(=O)CCN2 |  | inactive: 0.308%
35 | CCn1cc(C(=O)NC(=S)Nc2sc3c(c2C(=O)OC)CCCCCC3)cn1 | inconclusive: 20.6 µM [cytotoxic, single point] | 
36 | COc1ccc(Cl)c(N2CCN(CCCNC(=O)Nc3ccc(C)cc3)CC2)c1 |  | inactive: 0%
37 | Cc1ccc2c(Cl)c(C(=O)Nc3ccc4c(c3)OCO4)sc2c1 |  | inactive: 23.5%
38 | Cn1c(C(=O)NCc2ccc3c(c2)OCO3)cc2sccc21 | active: 16.4 µM | 
39 | CC1CN(Cc2nc3c(c(=O)[nH]c(=O)n3C)n2CCCc2ccccc2)CC(C)O1 (configuration not stated) | active: 3.26 µM | 
40 | Cc1ccc(-c2nn(-c3ccccc3)cc2/C=N/NC(=O)c2ccncc2)o1 |  | inactive: 7.49%
41 | O=C(CSc1ncnc2sc3c(c12)CCCC3)c1ccco1 | inconclusive: 18.4 µM [cytotoxic, partial curve] | 
42 | COc1ccc(C(=O)N2CCc3cc(OC)c(OC)cc3C2)cc1OC | inconclusive: 25.9 µM [cytotoxic, single point] | 
43 | Cc1cccc(NC(=O)c2ccc(OCC3CCCO3)cc2)c1C (configuration not stated) | active: 20.6 µM | 
44 | CC(NS(=O)(=O)OCC(Cl)(Cl)Cl)c1ccc(C(C)(C)C)cc1 (configuration not stated) | inconclusive: 29.1 µM [cytotoxic, single point] | 
45 | O=C(C1CC1)N1CCc2cc(S(=O)(=O)N3CCCc4ccccc43)ccc21 | inconclusive: 23.1 µM [cytotoxic, partial curve, poor fit] | 
46 | COc1cccc(CNC(=O)c2c(O)nc3ccccn3c2=O)c1 | active: 23.1 µM | 
47 | Cc1nn(C)c(Oc2ccccc2)c1CCNS(=O)(=O)c1ccccc1 | inconclusive: 23.1 µM [cytotoxic, single point] | 

Part of the list above, reformatted:
Row	SMILES	Potency	activity change, negative = cytotoxicity
11	CC1(C(=O)NS(=O)(=O)c2ccc(Br)cc2)CCN1C(=O)CCC1CCCC1 (configuration not stated)		inactive: 3.98%
23	COc1ccc(NC(=O)C/C(C)=N/NC(=O)COc2ccc(OC)cc2)cc1	inconclusive: 23.1 µM [rising, partial curve]	
25	Cc1cnc(Nc2nc3ccccc3o2)nc1C(=O)Nc1cccc(C(F)(F)F)c1	active: 14.6 µM	

Reference: PubChem BioAssay AID1347076 (National Center for Advancing Translational Sciences (NCATS), 2019)
